In doi:10.1101/2020.07.02.185173:
Results are given in words; binding and its absence hold for the method and conditions named. In cells and extracts the contact can be indirect. A yes stands for co-enrichment or nearness to the bait. Other partners may have been found.

Sequences of proteins named here, by UniProt entry; tags and fusion partners are left off. Residues count along the entry.
UniProt P36888, residues 27-993: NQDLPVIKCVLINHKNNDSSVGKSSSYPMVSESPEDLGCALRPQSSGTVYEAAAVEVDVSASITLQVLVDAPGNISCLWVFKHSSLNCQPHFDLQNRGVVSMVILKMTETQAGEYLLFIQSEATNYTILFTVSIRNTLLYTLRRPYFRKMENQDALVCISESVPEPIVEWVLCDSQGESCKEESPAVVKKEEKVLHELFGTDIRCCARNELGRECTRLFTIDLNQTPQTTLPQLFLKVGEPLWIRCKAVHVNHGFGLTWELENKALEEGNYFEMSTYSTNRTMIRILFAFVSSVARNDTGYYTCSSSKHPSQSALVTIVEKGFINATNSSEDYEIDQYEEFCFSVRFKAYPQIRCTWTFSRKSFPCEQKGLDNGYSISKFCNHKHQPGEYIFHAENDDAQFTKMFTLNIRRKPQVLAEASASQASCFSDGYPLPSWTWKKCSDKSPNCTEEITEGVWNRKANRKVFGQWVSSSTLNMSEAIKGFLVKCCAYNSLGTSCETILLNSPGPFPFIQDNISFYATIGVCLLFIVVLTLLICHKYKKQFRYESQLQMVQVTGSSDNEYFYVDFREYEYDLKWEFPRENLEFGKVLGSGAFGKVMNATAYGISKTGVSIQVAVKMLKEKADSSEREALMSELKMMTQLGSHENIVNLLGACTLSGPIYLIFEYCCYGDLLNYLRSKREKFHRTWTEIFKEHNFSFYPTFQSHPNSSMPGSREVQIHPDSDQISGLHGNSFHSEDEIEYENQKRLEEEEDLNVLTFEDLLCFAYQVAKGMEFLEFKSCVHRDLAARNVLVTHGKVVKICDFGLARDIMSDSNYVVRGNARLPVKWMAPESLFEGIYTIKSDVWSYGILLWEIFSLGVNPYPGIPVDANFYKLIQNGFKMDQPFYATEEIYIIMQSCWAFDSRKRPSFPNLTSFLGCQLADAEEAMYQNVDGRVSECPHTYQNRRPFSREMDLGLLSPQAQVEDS
UniProt P50750: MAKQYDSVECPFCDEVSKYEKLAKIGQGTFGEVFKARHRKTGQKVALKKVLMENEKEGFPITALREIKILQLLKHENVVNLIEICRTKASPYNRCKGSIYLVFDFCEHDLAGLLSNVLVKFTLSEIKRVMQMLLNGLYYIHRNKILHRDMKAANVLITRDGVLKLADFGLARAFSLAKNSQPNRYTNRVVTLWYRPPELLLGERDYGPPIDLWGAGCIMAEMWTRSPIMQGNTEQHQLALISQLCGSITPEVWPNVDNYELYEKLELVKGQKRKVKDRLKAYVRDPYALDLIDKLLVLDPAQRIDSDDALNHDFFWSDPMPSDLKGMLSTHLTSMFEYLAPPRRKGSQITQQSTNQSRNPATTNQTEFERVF
UniProt Q96JB1: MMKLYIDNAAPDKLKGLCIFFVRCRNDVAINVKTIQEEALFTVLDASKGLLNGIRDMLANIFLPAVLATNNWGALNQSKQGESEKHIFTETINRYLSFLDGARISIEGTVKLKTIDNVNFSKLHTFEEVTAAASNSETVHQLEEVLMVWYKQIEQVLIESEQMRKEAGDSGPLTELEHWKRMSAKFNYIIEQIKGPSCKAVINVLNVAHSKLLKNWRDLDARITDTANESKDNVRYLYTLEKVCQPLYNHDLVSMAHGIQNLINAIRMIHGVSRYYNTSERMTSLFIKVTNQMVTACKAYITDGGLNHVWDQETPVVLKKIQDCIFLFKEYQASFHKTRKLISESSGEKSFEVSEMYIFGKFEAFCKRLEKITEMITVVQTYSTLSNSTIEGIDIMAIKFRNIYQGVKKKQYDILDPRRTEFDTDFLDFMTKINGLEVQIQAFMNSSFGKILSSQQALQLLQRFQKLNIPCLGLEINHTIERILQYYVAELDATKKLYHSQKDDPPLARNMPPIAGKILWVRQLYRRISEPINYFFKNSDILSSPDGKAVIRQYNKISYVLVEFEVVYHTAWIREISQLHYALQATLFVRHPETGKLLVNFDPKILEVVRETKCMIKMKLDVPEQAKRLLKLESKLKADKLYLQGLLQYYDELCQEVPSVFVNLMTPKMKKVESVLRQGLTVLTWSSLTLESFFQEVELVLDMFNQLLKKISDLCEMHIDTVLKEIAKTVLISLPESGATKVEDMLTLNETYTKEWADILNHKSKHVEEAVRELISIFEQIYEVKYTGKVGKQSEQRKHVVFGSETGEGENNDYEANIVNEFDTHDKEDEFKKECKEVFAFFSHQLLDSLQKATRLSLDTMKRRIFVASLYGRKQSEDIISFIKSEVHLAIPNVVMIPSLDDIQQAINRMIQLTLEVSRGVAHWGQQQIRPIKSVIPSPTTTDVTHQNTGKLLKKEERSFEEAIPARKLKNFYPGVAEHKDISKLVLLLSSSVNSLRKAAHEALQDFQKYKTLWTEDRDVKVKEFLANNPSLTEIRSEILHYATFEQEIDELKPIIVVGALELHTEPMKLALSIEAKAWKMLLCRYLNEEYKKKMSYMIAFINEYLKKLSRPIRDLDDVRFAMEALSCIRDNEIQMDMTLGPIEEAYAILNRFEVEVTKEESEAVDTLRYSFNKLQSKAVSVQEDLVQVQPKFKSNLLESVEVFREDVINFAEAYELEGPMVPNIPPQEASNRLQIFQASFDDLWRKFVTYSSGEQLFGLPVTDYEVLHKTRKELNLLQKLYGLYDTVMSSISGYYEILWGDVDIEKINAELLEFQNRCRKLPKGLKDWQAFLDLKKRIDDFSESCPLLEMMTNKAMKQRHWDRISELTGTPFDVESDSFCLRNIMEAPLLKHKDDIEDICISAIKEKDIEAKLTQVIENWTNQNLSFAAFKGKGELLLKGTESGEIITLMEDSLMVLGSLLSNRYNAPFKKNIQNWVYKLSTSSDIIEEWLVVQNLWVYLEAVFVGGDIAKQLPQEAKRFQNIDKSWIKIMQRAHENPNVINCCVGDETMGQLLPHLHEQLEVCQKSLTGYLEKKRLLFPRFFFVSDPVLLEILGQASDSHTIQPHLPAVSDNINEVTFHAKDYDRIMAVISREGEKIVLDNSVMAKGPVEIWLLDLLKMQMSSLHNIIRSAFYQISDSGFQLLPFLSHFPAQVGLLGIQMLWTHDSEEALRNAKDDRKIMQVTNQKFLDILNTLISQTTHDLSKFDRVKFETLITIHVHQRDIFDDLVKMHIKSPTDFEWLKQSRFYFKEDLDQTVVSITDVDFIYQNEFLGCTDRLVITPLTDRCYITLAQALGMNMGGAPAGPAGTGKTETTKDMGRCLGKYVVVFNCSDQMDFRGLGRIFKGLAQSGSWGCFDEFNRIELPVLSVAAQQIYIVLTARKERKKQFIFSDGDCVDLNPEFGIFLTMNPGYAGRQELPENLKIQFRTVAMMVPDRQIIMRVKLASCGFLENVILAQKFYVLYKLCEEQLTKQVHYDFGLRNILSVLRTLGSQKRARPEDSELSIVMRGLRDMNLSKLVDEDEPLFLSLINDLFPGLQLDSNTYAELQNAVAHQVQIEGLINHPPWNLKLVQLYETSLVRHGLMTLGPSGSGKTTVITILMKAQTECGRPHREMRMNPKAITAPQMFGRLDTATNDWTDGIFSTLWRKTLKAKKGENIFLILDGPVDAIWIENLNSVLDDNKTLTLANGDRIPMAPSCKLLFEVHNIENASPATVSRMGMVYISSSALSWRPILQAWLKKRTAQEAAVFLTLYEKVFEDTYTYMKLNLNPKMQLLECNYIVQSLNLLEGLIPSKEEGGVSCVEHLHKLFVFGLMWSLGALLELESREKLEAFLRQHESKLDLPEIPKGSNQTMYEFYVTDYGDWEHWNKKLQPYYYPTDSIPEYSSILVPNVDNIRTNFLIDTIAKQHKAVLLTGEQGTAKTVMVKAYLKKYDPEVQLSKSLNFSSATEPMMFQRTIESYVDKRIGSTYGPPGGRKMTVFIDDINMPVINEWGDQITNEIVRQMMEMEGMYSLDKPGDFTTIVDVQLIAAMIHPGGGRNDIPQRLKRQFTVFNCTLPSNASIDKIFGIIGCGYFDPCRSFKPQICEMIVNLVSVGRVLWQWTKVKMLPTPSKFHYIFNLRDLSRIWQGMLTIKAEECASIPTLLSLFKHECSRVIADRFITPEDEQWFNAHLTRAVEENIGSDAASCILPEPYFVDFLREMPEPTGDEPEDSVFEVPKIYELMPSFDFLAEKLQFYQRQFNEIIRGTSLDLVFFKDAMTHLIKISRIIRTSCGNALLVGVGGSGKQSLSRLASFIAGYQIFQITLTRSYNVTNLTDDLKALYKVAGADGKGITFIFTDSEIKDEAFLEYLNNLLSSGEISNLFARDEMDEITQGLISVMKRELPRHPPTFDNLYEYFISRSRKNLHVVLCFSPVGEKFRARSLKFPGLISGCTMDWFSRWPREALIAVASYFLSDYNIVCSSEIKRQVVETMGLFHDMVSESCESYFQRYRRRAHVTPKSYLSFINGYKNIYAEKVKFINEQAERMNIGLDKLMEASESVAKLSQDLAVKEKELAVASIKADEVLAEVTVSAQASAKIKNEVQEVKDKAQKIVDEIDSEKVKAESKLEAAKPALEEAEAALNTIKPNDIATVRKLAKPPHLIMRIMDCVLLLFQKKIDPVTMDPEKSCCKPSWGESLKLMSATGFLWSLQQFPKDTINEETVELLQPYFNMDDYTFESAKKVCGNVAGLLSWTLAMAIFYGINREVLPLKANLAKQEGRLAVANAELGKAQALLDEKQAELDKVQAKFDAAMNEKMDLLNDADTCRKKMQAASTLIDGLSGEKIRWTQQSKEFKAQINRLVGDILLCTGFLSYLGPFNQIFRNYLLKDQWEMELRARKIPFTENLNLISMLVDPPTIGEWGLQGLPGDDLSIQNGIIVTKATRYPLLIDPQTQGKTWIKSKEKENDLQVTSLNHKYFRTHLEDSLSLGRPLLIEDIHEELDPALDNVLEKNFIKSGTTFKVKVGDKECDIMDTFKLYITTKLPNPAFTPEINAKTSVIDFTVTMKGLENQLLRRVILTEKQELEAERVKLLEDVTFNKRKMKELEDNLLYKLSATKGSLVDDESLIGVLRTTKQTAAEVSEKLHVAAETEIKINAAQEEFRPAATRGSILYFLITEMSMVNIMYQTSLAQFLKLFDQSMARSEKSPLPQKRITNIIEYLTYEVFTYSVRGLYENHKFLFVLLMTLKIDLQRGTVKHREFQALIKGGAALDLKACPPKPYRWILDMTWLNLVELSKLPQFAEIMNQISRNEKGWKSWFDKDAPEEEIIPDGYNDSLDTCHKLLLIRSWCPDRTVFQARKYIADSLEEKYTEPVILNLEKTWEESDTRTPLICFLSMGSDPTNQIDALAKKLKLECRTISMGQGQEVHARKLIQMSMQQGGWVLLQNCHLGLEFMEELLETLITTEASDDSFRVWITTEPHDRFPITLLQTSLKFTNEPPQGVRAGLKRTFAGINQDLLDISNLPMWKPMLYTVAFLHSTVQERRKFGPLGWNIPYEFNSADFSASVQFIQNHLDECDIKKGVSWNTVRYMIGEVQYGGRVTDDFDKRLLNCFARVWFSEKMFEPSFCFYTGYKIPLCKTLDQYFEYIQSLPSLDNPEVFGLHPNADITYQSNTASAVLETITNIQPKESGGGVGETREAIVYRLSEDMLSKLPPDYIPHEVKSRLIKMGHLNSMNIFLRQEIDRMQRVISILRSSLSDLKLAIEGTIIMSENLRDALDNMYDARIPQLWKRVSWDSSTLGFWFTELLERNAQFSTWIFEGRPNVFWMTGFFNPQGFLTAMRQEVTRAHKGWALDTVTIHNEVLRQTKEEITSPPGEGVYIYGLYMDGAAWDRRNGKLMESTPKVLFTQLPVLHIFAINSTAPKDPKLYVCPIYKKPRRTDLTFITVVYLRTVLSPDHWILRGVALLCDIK

Columns and labels:
FLT3 (human) = FLT3 (human) (UniProt P36888); experiment: affinity purification with mass spectrometry
DDR2 (human) = molecular target: T1, DDR2 (human) (UniProt Q16832); experiment: affinity purification with mass spectrometry
T1 sequence: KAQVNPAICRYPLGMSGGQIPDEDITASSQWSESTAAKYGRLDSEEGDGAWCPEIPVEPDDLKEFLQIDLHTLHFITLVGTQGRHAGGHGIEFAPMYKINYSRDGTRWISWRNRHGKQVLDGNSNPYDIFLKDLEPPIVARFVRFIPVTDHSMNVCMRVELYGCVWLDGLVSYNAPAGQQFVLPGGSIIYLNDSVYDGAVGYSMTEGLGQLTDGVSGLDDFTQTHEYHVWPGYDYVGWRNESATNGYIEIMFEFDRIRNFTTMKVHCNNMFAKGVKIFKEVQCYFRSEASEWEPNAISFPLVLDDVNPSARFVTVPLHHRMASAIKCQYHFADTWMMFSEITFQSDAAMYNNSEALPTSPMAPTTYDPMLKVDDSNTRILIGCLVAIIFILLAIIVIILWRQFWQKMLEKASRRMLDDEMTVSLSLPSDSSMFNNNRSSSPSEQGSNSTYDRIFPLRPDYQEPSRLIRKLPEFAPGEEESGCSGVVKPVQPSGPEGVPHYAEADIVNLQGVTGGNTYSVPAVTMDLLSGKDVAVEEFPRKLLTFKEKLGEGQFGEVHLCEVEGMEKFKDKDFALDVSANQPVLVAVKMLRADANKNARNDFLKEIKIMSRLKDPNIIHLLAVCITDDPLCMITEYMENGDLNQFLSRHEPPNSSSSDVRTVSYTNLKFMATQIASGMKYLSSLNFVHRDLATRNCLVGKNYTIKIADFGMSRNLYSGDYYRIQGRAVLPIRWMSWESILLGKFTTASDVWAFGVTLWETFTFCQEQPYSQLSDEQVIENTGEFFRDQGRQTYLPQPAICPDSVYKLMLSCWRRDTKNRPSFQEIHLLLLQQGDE

## CDK9 (from UniProt P50750 1-372) (enzyme)
FLT3 (human)
  binding: binds

## MYH11 (from UniProt P35749 1-1972)
DDR2 (human)
  binding: binds

## DNAH8 (from UniProt Q96JB1 1-4490)
DDR2 (human)
  binding: binds

## DOCK1 (from UniProt Q14185 1-1865)
DDR2 (human)
  binding: binds
